According to US11680904B2, “Automated system for high-throughput all-optical dynamic electrophysiology” (The George Washington University, priority 2016, dated 2023):
At least one structure is not confirmed: it was looked up by name or label, or the drawing left a doubt.

Test system: ChR2-CMs (neonatal rat ventricular CMs)
Type: cell-based
Method: Primary CMs were used through the study for all illustrative experiments with pharmacological treatments, mainly because at the current stage, they are perceived as more mature than the hiPSC-CMs and their response to drugs has been better documented. Briefly, neonatal (2-3 day old) SPRAGUE-DAWLEY® rats were sacrificed and ventricular tissue was removed per an approved Stony Brook University IACUC protocol. The tissue was digested overnight at 4° C. using 1 mg/mL trypsin (US BIOCHEMICALS®, Cleveland, Ohio) in Hanks' Balanced Salt Solution (HBSS, GIBCO® INVITROGEN™, Carlsbad, Calif.). The next morning, the tissue was serially digested using 1 mg/mL collagenase (WORTHINGTON BIOCHEMICAL®, Lakewood, N.J.) in HBSS at 37° C. and pipetted into conical tubes and placed on ice. After centrifugation, cells were re-suspended in culture medium M199 (GIBCO®) supplemented with […] L-glutamine (GIBCO®), 0.05 μg/mL penicillin-streptomycin (MEDIATECH CELLGRO™, Kansas City, Mo.), 0.2 μg/mL vitamin B12 (SIGMA ALDRICH®, St. Louis, Mo.), 10 mM HEPES (GIBCO®), 3.5 mg/mL D-(+)-glucose (SIGMA ALDRICH®), and 10% fetal bovine serum, FBS (GIBCO®). Fibroblasts were removed via a two-step pre-plating process, where the cell suspension was plated in a flask and incubated (37° C., 5% CO2) for 45-60 minutes and switched to a new flask and the incubation repeated. CMs were then counted using a hemocytometer prior to plating in glass-bottom 96-well plates (see Jia, Z. et al. Circulation. Arrhythmia and electrophysiology 4, 753-760, (2011) and Chung, C. Y., et al. J Cardiovasc Electrophysiol […], 1323-1329, (2007)).
Adenoviral delivery of ChR2(H134R) to primary CMs was performed in suspension (see Ambrosi, C. M. et al. Methods Mol Biol 1181, 215-228, (2014)). Briefly, the plasmid pcDNA3.1/hChR2(H134R)-EYFP was used (ADDGENE™, Cambridge, Mass.; deposited by Dr. K. Deisseroth) (see Zhang, F. et al. Nature 446, 633-639, (2007)), to develop an adenoviral construct (pBR322 backbone) with a ubiquitous CMV promoter. First-generation adenovirus was generated by homologous recombination of the Ad-CMV-ChR2-eYFP into pTG3604; further propagation and purification of the virus genomes was done by transfection into HEK293 cells and CsC1 banding. CMs were re-suspended in 2% FBS M199 after counting and diluted to 1.125×10^6 cells/mL and infected using an optimized MOI of 15 for two hours in an incubator (37° C., 5% CO2) with gentle agitation every 20 minutes. The MOI had been optimized during preliminary experiments to achieve >95% ChR2 expression in CMs within 48 hours using titer of 10^12 units/mL diluted in PBS, confirmed by eYFP reporter visualization and minimal cell death (by propidium iodide staining) (see Ambrosi, C. M., et al. Prog Biophys Mol Biol 115, 294-304, (2014) and Ambrosi, C. M. et al. Methods Mol Biol 1181, 215-228, (2014)). After two hours, the cell suspension was centrifuged and culture medium was removed and replaced with fresh 10% FBS M199 for plating (see Ambrosi, C. M. et al. Methods Mol Biol 1181, 215-228, (2014)).
Non-infected control CMs and ChR2-CM cells (for OptoHTS) were plated using a concentration of 1.125×10^6 cells/mL to achieve a plating density of 470,000 cells/cm^2. For CM/ChR2-HEK co-cultures, CMs at a concentration of 1.125×10^6 cells/mL were mixed in a conical with trypsinized ChR2-HEK cells, pre-diluted to achieve ratios 150:1 CM to ChR2-HEK. […]

COC(=O)C1=C(C)NC(C)=C(C(=O)OC)C1c1ccccc1[N+](=O)[O-] [nifedipine, Nifedipine] was tested, and the “effect on action potential duration (APD)” value (12 doses 0 to 50 μM, optical pacing 1 Hz, especially APD25 and APD50) was “APD shortening”, the “effect on calcium transient duration (CTD)” value (12 doses 0 to 50 μM, optical pacing 1 Hz, especially CTD25 and CTD50) was “CTD shortening” and the “action on peak calcium (% change)” value (as function of drug dose and pacing frequency) was “dose-dependent but frequency-independent”. For the same compound, the “APD response after the concentration of maximum shortening” value (beyond around 1 μM, optical pacing 1 Hz) was “reversed its direction” and the “temporal variability of peak calcium (MAD)” value (reduction augmented by higher-frequency pacing) was “reduces temporal variability of peak calcium”.
